Laboratory results published in patent US20220170038A1.
These are yes or no findings as the source states them, for the method shown. Binding seen in cells or lysates may run through a third protein. Some results given as binding are weak or reduced against the parent protein; the word gives no strength. Where a sequence is shown, tags or fusion partners need not be part of it.

Protein sequences, listed by entry. Tags and fused reporters are not part of them. Lines headed by an entry give the natural chain unless they say otherwise; changes in a name come on top.
UniProt P16267: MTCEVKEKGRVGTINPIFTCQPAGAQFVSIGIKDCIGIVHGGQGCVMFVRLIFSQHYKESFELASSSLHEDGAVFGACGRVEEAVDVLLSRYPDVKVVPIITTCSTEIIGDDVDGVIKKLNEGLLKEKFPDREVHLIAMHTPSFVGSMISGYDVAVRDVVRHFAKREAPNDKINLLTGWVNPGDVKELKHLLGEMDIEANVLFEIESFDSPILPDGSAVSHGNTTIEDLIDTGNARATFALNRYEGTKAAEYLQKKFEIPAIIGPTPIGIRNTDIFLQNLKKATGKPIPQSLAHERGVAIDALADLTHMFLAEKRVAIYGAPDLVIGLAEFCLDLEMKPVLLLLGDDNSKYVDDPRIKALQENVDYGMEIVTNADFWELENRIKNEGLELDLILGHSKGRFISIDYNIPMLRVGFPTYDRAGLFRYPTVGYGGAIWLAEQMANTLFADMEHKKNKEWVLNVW

Target: MPP-processed product of the MTP-CoxIV::Twin Strep::AnfK fusion polypeptide (SN195; encoded by SL34, SL37 and SL43) (Azotobacter vinelandii) (UniProt P16267)
Test: Strep-tactin XT pull-down of TwinStrep::AnfK from SL37-infiltrated leaves, anaerobic; anti-HA Western blot of the eluate

binding: binds
B1: MTP-FAγ51::AnfD::HA fusion polypeptide (SN81; encoded by SL37), unprocessed form (enzyme)
chain: MMAMAVFRREGRRLLPSIAARPIAAIRSPLSSDQEEGLLGVRSISTQVVRNRGGMPHHEFECSKVIPERKKHAVIKGKGETLADALPQGYLNTIPGSISERGCAYCGAKHVIGTPMKDVIHISHGPVGCTYDTWQTKRYISDNDNFQLKYTYATDVKEKHIVFGAEKLLKQNIIEAFKAFPQIKRMTIYQTCATALIGDDINAIAEEVMEEMPEVDIFVCNSPGFAGPSQSGGHHKINIAWINQKVGTVEPEITGDHVINYVGEYNIQGDQEVMVDYFKRMGIQVLSTFTGNGSYDGLRAMHRAHLNVLECARSAEYICNELRVRYGIPRLDIDGFGFKPLADSLRKIGMFFGIEDRAKAIIDEEVARWKPELDWYKERLMGKKVCLWPGGSKLWHWAHVIEEEMGLKVVSVYTKFGHQGDMEKGIARCGEGTLAIDDPNELEGLEALEMLKPDIILTGKRPGEVAKKVRVPYLNAHAYHNGPYKGFEGWVRFARDIYNAIYSPIHQLSGIDITKDNAPEWGNGFRTRQMLSDGNLSDAVRNSETLRQYTGGYDSVSKLREREYPAFERKVGGGYPYDVPDYA
